Some of the results follow.

Amino acid sequences for entries named in this document (tags omitted).
UniProt Q0JBA9, entry or part of it: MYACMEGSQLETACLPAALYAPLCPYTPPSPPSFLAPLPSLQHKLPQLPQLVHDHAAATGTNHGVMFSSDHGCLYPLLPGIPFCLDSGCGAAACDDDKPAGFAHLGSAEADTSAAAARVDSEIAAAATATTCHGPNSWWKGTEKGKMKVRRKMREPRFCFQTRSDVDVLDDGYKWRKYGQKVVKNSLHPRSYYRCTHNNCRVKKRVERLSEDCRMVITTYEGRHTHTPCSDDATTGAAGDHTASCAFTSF

The target in this assay is OsWRKY34 (Oryza sativa, UniProt Q0JBA9 1-250). Description: protein-binding microarray (RPBM); PBS, 2% BSA, 51.3 ng/ul salmon testes DNA, 50 uM zinc acetate, 200 nM TF, 25 C, 1 h; high values mean tight binding. The following applies: protein: recombinant; tags: N-terminal polyhistidine and DsRed monomer fusion (pET32a); label: CyDye5-dUTP incorporated in the synthesized complementary strand; 3' TTTTT single-stranded linker to array surface; dsDNA, one strand shown. A digest of the protocol: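 Binding signal is defined as the fluorescence intensity of each feature in arbitrary units, read on an Axon 4000B scanner. Transcription factors with N-terminal polyhistidine and DsRed fusions came from E. coli BL21-CodonPlus and were purified on Ni–NTA. They were incubated at 200 nM for 1 h at 25 °C on a custom Agilent array that had been made double-stranded with Cy5-dUTP, with 50 µM zinc acetate present, and the array was washed.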
With “AGTTGATGATACTCCTACACTACCCTGTTATTATCAAACTCGGAGTCACCTAGTGCAG”, the binding signal is 9240 fluorescence intensity (a.u.).

“GTTTATTTTCTTTTTCCTGACTATAGTCTCCCAGGACTATCGGAGTCACCTAGTGCAG”: the binding signal was 13400 fluorescence intensity (a.u.).

For the sequence “CTTTCCTCTGTTGTGGGATTCCCCTTTCCTACGAACTCTCCGGAGTCACCTAGTGCAG”, the binding signal is 10300 fluorescence intensity (a.u.).

As for “CTTCTAATTATTTGATATTAGGTCATTCTCTAATATTCACCGGAGTCACCTAGTGCAG”, the binding signal is 8450 fluorescence intensity (a.u.).

With “CGCTAGTTTTGTCTACATCATCGTCATGGAACACGACTCCCGGAGTCACCTAGTGCAG”, the binding signal was 10200 fluorescence intensity (a.u.).

In the case of “CGAATTAGGAATCTCGCAAATTCATGCTTCATTCTGTATTCGGAGTCACCTAGTGCAG”, the binding signal was 8020 fluorescence intensity (a.u.).

For “GTTGAAAGTTGATGTGTGTTGTGTATATATACACATCTCTCGGAGTCACCTAGTGCAG”, the binding signal was 9110 fluorescence intensity (a.u.).

“ACTCGCAGTCGCCGCCGCCCTCCTCCCAACCCGCGCGGCGCGGAGTCACCTAGTGCAG”: the binding signal was 8880 fluorescence intensity (a.u.).

Take “TGGAACCATTGTGGGGTAGGATATGTTCGGTATGATCAAACGGAGTCACCTAGTGCAG”: the binding signal was 8250 fluorescence intensity (a.u.).

Turning to “GCTTTCCTCTGAATTCCACACGCATTGAACCATATATAAACGGAGTCACCTAGTGCAG”, the binding signal was 10000 fluorescence intensity (a.u.).

In the case of “CTCTCTTTCTCTCTCGCGGCCTCGCGTCCGCCTGCCTCCTCGGAGTCACCTAGTGCAG”, the binding signal is 8330 fluorescence intensity (a.u.).

On to “TCCAACTTGGGGAGGGAGGGCCGTTTCAGCTCGGGCTTTTCGGAGTCACCTAGTGCAG”, for which the binding signal is 17200 fluorescence intensity (a.u.).

Regarding “AATGCACCGGATAAAATACCACTCAATACGTTGTCTACCGCGGAGTCACCTAGTGCAG”, the binding signal is 8230 fluorescence intensity (a.u.).

Turning to “AATCTCCATTCTCGTCGTCTCCTCAGCTGCTTGCGCCAAGCGGAGTCACCTAGTGCAG”, the binding signal is 9390 fluorescence intensity (a.u.).

On to “ATCTCCGGCGTTTTTCAACCGTATGGCAATGATCATCCTTCGGAGTCACCTAGTGCAG”, for which the binding signal was 11100 fluorescence intensity (a.u.).

For “CATATGCTTAGTTTCAGCTCATTATTCTCTCATATTTGACCGGAGTCACCTAGTGCAG”, the binding signal is 9830 fluorescence intensity (a.u.).

As to “TTTCCTTTCCTGCCCATTTGCTTAGCTATATATCTTGCAGCGGAGTCACCTAGTGCAG”, the binding signal was 9390 fluorescence intensity (a.u.).

“CACTGCCTCCTAGGTACACTTTTTGTCTGCTCTTCAATTGCGGAGTCACCTAGTGCAG”: the binding signal is 8500 fluorescence intensity (a.u.).

Turning to “ATTGTTAGCCTTGCTGGTGCTGCAGTTGCCTCAACCACAGCGGAGTCACCTAGTGCAG”, the binding signal is 9080 fluorescence intensity (a.u.).

Turning to “CCTACGTGGTCGTGCCCCAATTCCTGCTTTTTTTCCCCTGCGGAGTCACCTAGTGCAG”, the binding signal was 11100 fluorescence intensity (a.u.).

“AATTCGGCGTGCAGTGGATATGGATTTGCCCACAATCTCTCGGAGTCACCTAGTGCAG”: the binding signal is 8320 fluorescence intensity (a.u.).

For “TTTTGTTGGTTTCTTGGGGATATTGAATGTTTATATTATTCGGAGTCACCTAGTGCAG”, the binding signal is 8500 fluorescence intensity (a.u.).

“CGGAACCACCGCCGCCGCGCCATGCCCATCTCCTCCTTGTCGGAGTCACCTAGTGCAG”: the binding signal is 11000 fluorescence intensity (a.u.).

Turning to “GACGTGTTTGGTCTTCGGTTCGGTGGGTCTCAAGTTCTGACGGAGTCACCTAGTGCAG”, the binding signal was 19400 fluorescence intensity (a.u.).

Consider “CGCGGCCATCAATCCCGCGGCGGCCACCGTCTCCAAGTCCCGGAGTCACCTAGTGCAG”, for which the binding signal was 8080 fluorescence intensity (a.u.).

Consider “CTCCGTTATCAAATATCGTGTCTCGTTGTCGTCATCATATCGGAGTCACCTAGTGCAG”, for which the binding signal is 13400 fluorescence intensity (a.u.).

Take “ATATGATATTTGTCCATCTTAATTGCTTATAAGCTGTATACGGAGTCACCTAGTGCAG”: the binding signal is 8760 fluorescence intensity (a.u.).

For “TTGTTCCTCAAATTTGTTCTCCTACGATCTTCAGTTGTGGCGGAGTCACCTAGTGCAG”, the binding signal was 9220 fluorescence intensity (a.u.).

Turning to “CATATCTGTTGCAGGGTTAGCTTTTTCACTTCCGTAAACACGGAGTCACCTAGTGCAG”, the binding signal is 11500 fluorescence intensity (a.u.).

Regarding “ATAGTTTGTTGTTTCCCAGACATAATTTTTACTAGCTTATCGGAGTCACCTAGTGCAG”, the binding signal is 9630 fluorescence intensity (a.u.).

Take “CTCCGTCGTCGTCATCATCCACTCTCCTCTCCCCTGGTTTCGGAGTCACCTAGTGCAG”: the binding signal is 12200 fluorescence intensity (a.u.).

Regarding “CATGATCACTTGCATTTCATCTTTTCATGAACGTTTTTTTCGGAGTCACCTAGTGCAG”, the binding signal is 10700 fluorescence intensity (a.u.).

As to “TGACCTCGTACGCCGGCACCGCCATCCTGCCCAAACAATGCGGAGTCACCTAGTGCAG”, the binding signal was 9040 fluorescence intensity (a.u.).

Take “ACTATCCCCACCCGTGTCCCGCGCGCCACGCCACGCCACGCGGAGTCACCTAGTGCAG”: the binding signal is 12300 fluorescence intensity (a.u.).

For “TGTTTATAGCATCTCTCTCGCTGCCTCCTTATAGGGCTCACGGAGTCACCTAGTGCAG”, the binding signal was 8730 fluorescence intensity (a.u.).

“TGTTGACTTTTTAAAATCATGTGCTTGACAGGGCCGAACCCGGAGTCACCTAGTGCAG”: the binding signal was 8150 fluorescence intensity (a.u.).

As for “CCGTCCGGCGAATAAACCCGCCGCCTCTCGTTTCGCCGCCCGGAGTCACCTAGTGCAG”, the binding signal is 8680 fluorescence intensity (a.u.).

As for “CTGTAATTTCTTTTTTTCTTCCTCTTTTGTCTTAGCAGTTCGGAGTCACCTAGTGCAG”, the binding signal is 8970 fluorescence intensity (a.u.).

For “GAGGCGTATATTGTTGTTCTCATTCCCCAACCACTCGATCCGGAGTCACCTAGTGCAG”, the binding signal is 9630 fluorescence intensity (a.u.).

Turning to “GGTGGGCCCCTGTACAGTAGCATTTTGTATTTTCTCTATTCGGAGTCACCTAGTGCAG”, the binding signal is 11500 fluorescence intensity (a.u.).

“GGTCAACAAAGCCATTCCTTGCTTTCCATTCTGATTTTGTCGGAGTCACCTAGTGCAG”: the binding signal is 12900 fluorescence intensity (a.u.).

For “CCCTATATAAACCGCCACGCCACGCCACGGCCACCAACTCCGGAGTCACCTAGTGCAG”, the binding signal was 8910 fluorescence intensity (a.u.).

In the case of “TTTTTCCCCTCCTCTCGATCGCTTGGTGTTTGTGCTTGTTCGGAGTCACCTAGTGCAG”, the binding signal is 8590 fluorescence intensity (a.u.).

For the sequence “AATTATTTTGCTGGGGAGCTAGGGTTTGTGGAGAACTTTTCGGAGTCACCTAGTGCAG”, the binding signal is 9320 fluorescence intensity (a.u.).

Take “ATTTTGGATTTTATTTTTATTTTATTCCGAATATTAATTACGGAGTCACCTAGTGCAG”: the binding signal is 8140 fluorescence intensity (a.u.).

Turning to “CATAGAGCTCATTCAATTCCATTACGTACATTAGCCCTCACGGAGTCACCTAGTGCAG”, the binding signal was 8420 fluorescence intensity (a.u.).

For the sequence “TTCAGTTTCTTTCTACGATTTTCATGCGCCTCAGCCATCCCGGAGTCACCTAGTGCAG”, the binding signal is 8510 fluorescence intensity (a.u.).

As for “AGTTTGTCATGGTCTAAAATATTACCCAGGTGTTCTTTGACGGAGTCACCTAGTGCAG”, the binding signal is 8760 fluorescence intensity (a.u.).

For “GTTCATTAAATATCTTTTCTAACCCTTAGTCTGTATATCCCGGAGTCACCTAGTGCAG”, the binding signal is 8280 fluorescence intensity (a.u.).

As for “GTTAGTTGTTGGGGAGGAGGGGTATCGGGCGGAGAGGTGGCGGAGTCACCTAGTGCAG”, the binding signal was 15100 fluorescence intensity (a.u.).

As for “GCACAGCGCCCGCGGTCCCAGTTCAGCGCCCAGAACACCACGGAGTCACCTAGTGCAG”, the binding signal is 8060 fluorescence intensity (a.u.).

For the sequence “TCCCCTCTTCCCCTCGCTTCTTCGTCGGTCGACCTGCGCACGGAGTCACCTAGTGCAG”, the binding signal was 8210 fluorescence intensity (a.u.).

With “TCGTGCGTGCGTGAGGGAGGTCGTGGTGGTGGTGGTGGTGCGGAGTCACCTAGTGCAG”, the binding signal is 9020 fluorescence intensity (a.u.).

As for “ACCCGGTCACCCCTCGCCCGCACCGCACGACACAAGGGCCCGGAGTCACCTAGTGCAG”, the binding signal is 8150 fluorescence intensity (a.u.).

Source of the values: article PMC7819943, “Rice protein-binding microarrays: a tool to detect cis-acting elements near promoter regions in rice”.
